No constants are given. Whether binding was seen depends on the method and setting. In cells and extracts the contact can be indirect. A yes stands for co-enrichment or nearness to the bait. Other partners may have been found.
Biological target: FW2.2 fused to YFP at its C-terminal end (tomato (Solanum lycopersicum cv. AC)) (UniProt Q9LKV7)
Test: affinity purification with mass spectrometry

Row | binding | Substance
1 | binds | Callose Synthase SlCalS3a (Solyc01g006370) (from UniProt A0A3Q7E8V3) (enzyme)
2 | binds | Callose Synthase SlCalS12 (Solyc07g053980) (from UniProt A0A3Q7I943) (enzyme)
